# Values from PubChem BioAssay AID743121 (NCATS, 2013)
# Assay: 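Knock-downs that sensitise breast cancer cells to camptothecin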 (primary screen)
# System: MDA-MB-231 cells, a human breast cancer line
# Reagent: single siRNA against human genes, 20 nM siRNA (0.8 pmol per well)
# Time to read-out: 120 h (drug added 48 h after transfection, read 72 h later)
# Conditions: camptothecin 20 nM (about EC30) for 72 h; vehicle 0.1% DMSO in parallel plates
# Detection: 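CellTiter-Glo ATP signal, scaled to control siRNA as percent viability; sensitisation given as log2 of untreated divided by camptothecin-treated viability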
# Scale: log2 vehicle/camptothecin viability: higher = stronger sensitisation to camptothecin
# Hit rule: 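Active genes have an RSA gene-level p-value below 0.001, computed from the ratios of their separate siRNAs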
# This is one part, drawn at random, of about 26,000 deposited reagents. Of all reagents, 167 (0.63%) are marked active. 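Calls are per gene from RSA p-values that are not deposited; an individual active-marked siRNA can sensitise only weakly.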 A number with no mark means an inactive call. The numbers tell different reagents against one gene apart. Further read-outs or replicates are left out here.
Target gene,siRNA no.,log2 vehicle/camptothecin viability
SCTR,1,0.105
SCTR,2,-0.0128
SCTR,3,0.392
SCTR,4,0.0983
PLD2,1,-0.169
PLD2,2,-0.00409
PLD2,3,-0.458
PLD2,4,-0.209
RPS6KA2,1,-0.404
RPS6KA2,2,0.35
RPS6KA2,3,-0.563
RPS6KA2,4,0.771
PRSS8,1,0.375
PRSS8,2,-0.617
PRSS8,3,-0.0532
PRSS8,4,-0.341
ALDH1A3,1,0
ALDH1A3,2,-0.202
ALDH1A3,3,0.116
NMT1,1,-0.285
NMT1,2,0.0959
NMT1,3,-0.0814
NMT1,4,-0.235
SCN11A,1,-0.102
SCN11A,2,-0.381
SCN11A,3,0.259
SCN11A,4,-0.517
TRPM2,1,0.00105
TRPM2,2,0.135
TRPM2,3,-0.45
CYP4F8,1,-0.441
CYP4F8,2,0.107
CYP4F8,3,-0.225
CYP4F8,4,-0.22
ADH4,1,-0.0668
ADH4,2,0.269
ADH4,3,-0.283
BRINP2,1,-0.254
BRINP2,2,0.086
BRINP2,3,-0.417

6 successive records from above, quoted:
Target gene,siRNA no.,log2 vehicle/camptothecin viability
CYP4F8,2,0.107
CYP4F8,3,-0.225
CYP4F8,4,-0.22
ADH4,1,-0.0668
ADH4,2,0.269
ADH4,3,-0.283

The results go on.
Target gene,siRNA no.,log2 vehicle/camptothecin viability
RNF167,1,-0.111
RNF167,2,-0.301
RNF167,3,-0.326
RNF167,4,-0.264
PTGER1,1,-0.606
PTGER1,2,-0.404
PTGER1,3,-0.431
PTGER1,4,-0.00741
TACR2,1,-0.315
TACR2,2,-0.708
TACR2,3,0.65
TACR2,4,-0.275
UBTD1,1,-0.163
UBTD1,2,-0.0979
UBTD1,3,-0.0279
UBTD1,4,-0.548
PHLPP1,1,-0.514
PHLPP1,2,0.116
PHLPP1,3,0.404
PHLPP1,4,-0.00549
CSNK2B,1,-0.375
CSNK2B,2,-0.029
CSNK2B,3,-0.406
CSNK2B,4,-0.217
IRAK1,1,0.235
IRAK1,2,-0.00732
IRAK1,3,0.119
IRAK1,4,-0.0861
